## Results of single-concentration screens

Amino acid sequences for entries named in this document (tags omitted). Residues count along the entry.
UniProt P9WPC5, whole entry: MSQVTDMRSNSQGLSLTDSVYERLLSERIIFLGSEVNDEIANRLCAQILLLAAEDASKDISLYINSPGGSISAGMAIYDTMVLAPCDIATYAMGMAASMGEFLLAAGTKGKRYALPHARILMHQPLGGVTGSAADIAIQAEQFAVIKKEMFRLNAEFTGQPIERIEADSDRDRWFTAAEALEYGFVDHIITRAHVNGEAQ
UniProt P9WPC3, whole entry partner: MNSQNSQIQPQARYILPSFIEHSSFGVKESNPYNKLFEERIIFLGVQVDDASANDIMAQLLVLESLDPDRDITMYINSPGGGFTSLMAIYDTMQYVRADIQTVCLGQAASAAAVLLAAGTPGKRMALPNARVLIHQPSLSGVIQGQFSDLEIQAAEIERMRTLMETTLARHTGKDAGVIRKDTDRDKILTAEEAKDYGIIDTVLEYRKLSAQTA
UniProt P9WNZ1, whole entry: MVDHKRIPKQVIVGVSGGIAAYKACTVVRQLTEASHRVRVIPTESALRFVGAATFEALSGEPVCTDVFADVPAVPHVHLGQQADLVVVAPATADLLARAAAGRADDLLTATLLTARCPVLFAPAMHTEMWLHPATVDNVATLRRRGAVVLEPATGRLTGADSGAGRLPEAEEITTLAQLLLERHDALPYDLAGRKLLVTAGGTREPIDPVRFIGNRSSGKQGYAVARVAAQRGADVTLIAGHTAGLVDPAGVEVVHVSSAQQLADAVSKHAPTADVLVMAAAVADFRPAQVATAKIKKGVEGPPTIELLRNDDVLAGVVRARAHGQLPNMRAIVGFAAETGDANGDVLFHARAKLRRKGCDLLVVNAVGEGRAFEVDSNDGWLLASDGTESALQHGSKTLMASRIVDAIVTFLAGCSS
UniProt Q8IDJ8, 1-583: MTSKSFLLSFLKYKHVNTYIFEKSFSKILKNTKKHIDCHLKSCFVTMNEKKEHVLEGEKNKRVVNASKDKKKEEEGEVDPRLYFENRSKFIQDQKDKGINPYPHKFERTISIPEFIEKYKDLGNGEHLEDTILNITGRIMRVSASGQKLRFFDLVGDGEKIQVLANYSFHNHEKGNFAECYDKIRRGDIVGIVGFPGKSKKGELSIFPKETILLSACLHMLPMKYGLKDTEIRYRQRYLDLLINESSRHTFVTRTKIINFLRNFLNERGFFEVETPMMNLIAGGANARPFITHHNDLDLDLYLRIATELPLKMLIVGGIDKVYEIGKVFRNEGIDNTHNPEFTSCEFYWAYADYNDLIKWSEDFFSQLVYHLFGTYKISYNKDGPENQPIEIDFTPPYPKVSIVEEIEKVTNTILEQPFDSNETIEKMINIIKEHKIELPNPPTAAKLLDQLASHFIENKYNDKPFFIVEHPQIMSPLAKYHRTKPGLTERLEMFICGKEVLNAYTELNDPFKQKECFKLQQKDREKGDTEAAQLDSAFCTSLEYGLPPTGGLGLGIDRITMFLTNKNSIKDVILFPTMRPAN
UniProt Q4DA54, 1-478: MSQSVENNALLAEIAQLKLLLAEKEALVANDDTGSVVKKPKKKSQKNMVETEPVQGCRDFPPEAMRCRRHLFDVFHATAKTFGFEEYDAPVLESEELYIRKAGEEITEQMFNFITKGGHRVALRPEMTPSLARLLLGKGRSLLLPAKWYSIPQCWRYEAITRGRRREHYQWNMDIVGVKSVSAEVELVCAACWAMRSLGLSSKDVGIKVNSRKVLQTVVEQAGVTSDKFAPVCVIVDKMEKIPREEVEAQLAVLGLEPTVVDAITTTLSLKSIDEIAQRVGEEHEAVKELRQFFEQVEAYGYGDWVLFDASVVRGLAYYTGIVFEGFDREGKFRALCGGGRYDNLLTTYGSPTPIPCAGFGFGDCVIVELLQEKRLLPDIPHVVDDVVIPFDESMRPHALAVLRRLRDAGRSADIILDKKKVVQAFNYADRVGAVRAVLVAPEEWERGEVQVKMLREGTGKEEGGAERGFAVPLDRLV
UniProt I6X8D2, whole entry: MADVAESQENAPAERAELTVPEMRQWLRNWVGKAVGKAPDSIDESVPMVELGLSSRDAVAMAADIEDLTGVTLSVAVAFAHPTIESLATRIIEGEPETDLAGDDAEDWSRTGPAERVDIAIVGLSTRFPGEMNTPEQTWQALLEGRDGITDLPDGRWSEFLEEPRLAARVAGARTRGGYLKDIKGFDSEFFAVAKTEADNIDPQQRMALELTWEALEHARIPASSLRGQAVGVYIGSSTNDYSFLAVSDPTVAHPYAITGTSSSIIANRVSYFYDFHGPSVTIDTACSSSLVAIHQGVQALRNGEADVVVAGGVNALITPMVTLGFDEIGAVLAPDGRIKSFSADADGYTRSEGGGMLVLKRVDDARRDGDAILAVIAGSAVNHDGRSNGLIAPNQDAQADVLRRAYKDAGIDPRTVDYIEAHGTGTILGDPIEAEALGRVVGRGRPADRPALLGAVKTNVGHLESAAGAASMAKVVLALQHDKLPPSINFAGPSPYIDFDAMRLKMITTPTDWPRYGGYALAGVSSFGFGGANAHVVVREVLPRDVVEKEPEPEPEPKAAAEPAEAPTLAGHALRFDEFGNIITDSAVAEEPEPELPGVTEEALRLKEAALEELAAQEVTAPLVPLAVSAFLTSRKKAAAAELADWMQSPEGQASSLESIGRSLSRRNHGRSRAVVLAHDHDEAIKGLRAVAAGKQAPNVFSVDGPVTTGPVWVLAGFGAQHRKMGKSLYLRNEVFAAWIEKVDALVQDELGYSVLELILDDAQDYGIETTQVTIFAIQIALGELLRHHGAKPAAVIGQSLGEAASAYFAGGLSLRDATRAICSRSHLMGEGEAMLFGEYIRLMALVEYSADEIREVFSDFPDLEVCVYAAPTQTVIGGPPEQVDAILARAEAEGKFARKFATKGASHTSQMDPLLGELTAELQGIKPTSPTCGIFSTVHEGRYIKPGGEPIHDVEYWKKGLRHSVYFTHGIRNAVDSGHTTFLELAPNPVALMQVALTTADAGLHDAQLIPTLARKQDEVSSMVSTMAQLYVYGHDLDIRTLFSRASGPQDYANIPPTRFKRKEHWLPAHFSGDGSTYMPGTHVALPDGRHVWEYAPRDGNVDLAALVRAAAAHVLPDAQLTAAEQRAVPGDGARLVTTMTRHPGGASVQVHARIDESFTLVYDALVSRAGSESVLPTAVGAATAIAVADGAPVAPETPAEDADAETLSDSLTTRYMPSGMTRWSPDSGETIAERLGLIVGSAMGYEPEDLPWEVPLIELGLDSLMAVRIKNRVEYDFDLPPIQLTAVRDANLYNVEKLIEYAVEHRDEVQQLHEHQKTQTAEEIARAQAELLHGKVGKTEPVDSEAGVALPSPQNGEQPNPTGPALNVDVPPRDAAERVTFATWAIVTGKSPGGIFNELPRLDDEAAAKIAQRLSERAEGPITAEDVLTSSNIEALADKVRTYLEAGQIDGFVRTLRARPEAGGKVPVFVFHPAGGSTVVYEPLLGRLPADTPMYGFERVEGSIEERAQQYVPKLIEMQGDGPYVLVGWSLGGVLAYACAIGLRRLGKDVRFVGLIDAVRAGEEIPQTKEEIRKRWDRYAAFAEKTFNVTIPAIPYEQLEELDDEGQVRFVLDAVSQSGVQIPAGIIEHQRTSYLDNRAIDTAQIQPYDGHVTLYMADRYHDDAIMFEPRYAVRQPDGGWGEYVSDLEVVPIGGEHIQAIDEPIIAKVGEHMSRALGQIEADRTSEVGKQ

Measurements from “University of Dundee, Small-Polar-MMV Screening Library” (2021), ChEMBL document CHEMBL3988442.

The filed quantity is “Percent Effect” (%).
The controls that fix the scale are not given in the record; negative values are as filed.
The compounds are a random part of those screened.
A dash means the value is not listed here; it may have been measured.

A: 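Protease assay of ClpP1P2, read by the AMC dye that it sets free. Target: ClpP1P2, Mycobacterium tuberculosis (UniProt P9WPC5 and UniProt P9WPC3). Compounds at 50 µM. Higher reads as stronger inhibition, judged from the few compounds that gave an IC50. Most other retested compounds had strongly negative values. About 69,000 compounds were tested under these conditions; 0.015% (about 10) showed 50% or more at least once.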
B: 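Coenzyme A biosynthesis protein CoaBC, Mycobacterium tuberculosis (UniProt P9WNZ1). Enzyme assay of CoaBC with a phosphate dye (Biomol Green) read at 650 nm. Tested at 30 µM. Higher reads as stronger inhibition, judged from the few compounds that gave an IC50. Most strong results did not repeat in a second test. About 67,000 compounds were tested under these conditions; 0.06% (about 40) showed 50% or more at least once.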
C: 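Enzyme assay of the cytosolic lysyl-tRNA synthetase in 384-well plates, read by luminescence. Target: Lysine-tRNA ligase, Plasmodium falciparum 3D7 (UniProt Q8IDJ8). Compounds at 30 µM. Direction is inferred from only a few compounds that gave an IC50; most scored high, so higher reads as stronger inhibition. Size under these conditions: about 69,000 compounds, about 49 of them at 50% or above in at least one test.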
D: 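Histidine-tRNA ligase, Trypanosoma cruzi CL Brener (UniProt Q4DA54). Enzyme assay of histidyl-tRNA synthetase; the read-out is not stated. Concentration: 30 µM. Direction is inferred from retests: higher values go with stronger inhibition. Size under these conditions: about 69,000 compounds, about 31 of them at 50% or above in at least one test.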
E: 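Enzyme assay of the thioesterase domain of polyketide synthase 13; the read-out is not stated. Target: Polyketide synthase Pks13, Mycobacterium tuberculosis (UniProt I6X8D2). Compounds at 30 µM. Higher reads as stronger inhibition (inferred from which compounds were picked for retests). Size under these conditions: about 67,000 compounds, about 300 of them at 50% or above in at least one test.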

| compound | A | B | C | D | E |
|---|---|---|---|---|---|
| `O=C(c1ccccn1)N1CCCC(c2nccn2CC2CCC2)C1` (stereo not drawn) | -2.731% | -9.595% | -2.26% | 5.785% | -20.15% |
| `CCn1cc(-c2cc(C(F)F)nc3sc(C(N)=O)c(N)c23)c(C)n1` | -9.429% | 0.5102% | 4.721% | 3.125% | 29.5% |
| `CC(c1ccccc1)n1c(SCC(=O)O)nnc1-c1ccn[nH]1` (stereo not drawn) | -12.5% | 0.8157% | 4.918% | 2.97% | 9.251% |
| `COc1ccc2[nH]nc(CN3CCC(C(=O)N4CCCCC4)CC3)c2c1` | 8.831% | 5.556% | 7.047% | 4.712% | -18.08% |
| `COC1COC2(CCN(C(=O)c3cnc(C)cn3)CC2)C1` (stereo not drawn) | 6.552% | -3.484% | -6.686% | 0% | -23.8% |
| `c1cnc2c(c1)cc([C@H]1CCCO1)n2CCN1CCOCC1` | -4.474% | -5.556% | 5.006% | 0.5405% | -38.97% |
| `Cc1ccc(CN2CCc3ncnc(C4CCOC4)c3CC2)s1` (stereo not drawn) | 7.303% | 3.426% | 5.102% | 4.865% | -7.578% |
| `CCOc1ccc(C#N)cc1NCC(=O)OC` | -5.598% | 11.18% | 1.655% | 1.744% | 12.45% |
| `C[C@@H]1CN(c2nc3c(cc2C(N)=O)CCC3)C[C@@]1(O)C1CCC1` | -3.044% | -3.356% | 5.991% | 4.124% | 17.48% |
| `Cc1nc(CO[C@@H]2CN(Cc3cnn(C)c3)[C@@H]3COC[C@@H]32)cs1` | -10.99% | 4.086% | 1.498% | 0.8264% | -8.588% |
| `O=C(NCCn1ccc(-c2ccccn2)n1)c1ccncc1` | -15.61% | 13.43% | -0.1043% | -0.8264% | -7.593% |
| `CC(C(N)=O)N(C)Cc1ccccc1C(F)(F)F` (stereo not drawn) | 8.133% | 0.3841% | -5.109% | -4.294% | 9.345% |
| `CCn1cc(NC(=O)CN2CCC(Oc3ccccc3C)CC2)c(C)n1` | -20.9% | 8.447% | -0.08781% | 0.8571% | -8.434% |
| `N#Cc1ccc(CNCC2CCN(CCO)CC2)cc1` | -11.07% | -46.27% | -2.075% | 4.959% | -8.98% |
| `COCC[C@]1(O)CCN(Cc2nc(C)c(C)s2)C[C@H]1C` | -2.306% | 15.38% | 8.328% | 3.627% | -13.08% |
| `Cc1ccc(-c2nc(CC3CCN(C)CC3)no2)cc1N1CCNC1=O` | 6.897% | 1.887% | 10.01% | 5.357% | -3.495% |
| `O=C1C(CS(=O)(=O)Nc2ccc(Br)cc2)=NC(=O)n2cccc21` | -4.729% | -1.515% | -0.6304% | -2.924% | -18.01% |
| `Cc1[nH]c(=O)[nH]c(=O)c1CN1CCCC(CCc2ccc(F)cc2F)C1` (stereo not drawn) | 2.011% | -41.63% | 3.86% | 11.63% | -39.81% |
| `CN(C(=O)CCc1nc(C2CC2)no1)c1cc(C#N)c2ccccc2n1` | -74.41% | 3.03% | 11.83% | 0.5181% | -8.365% |
| `Cc1noc([C@@]23CCO[C@@H]2CCN(S(=O)(=O)c2cccnc2)C3)n1` | 1.144% | 0.7426% | 2.324% | 7.735% | -44.57% |
| `O=C(NCC1CCCCC1)N1C[C@H]2C[C@H](C(=O)N3CCCC3)[C@@H](C1)O2` | 5.833% | - | 11.5% | 8.861% | -16.51% |
| `CNS(=O)(=O)Cc1ccccc1CNc1ccc(C#N)cn1` | 10.96% | -3.478% | 2.879% | 0.5128% | -26.36% |
| `Cc1ccsc1CNC(=O)N(C)Cc1cnn(C)c1` | 2.392% | -0.3736% | 1.275% | 4.373% | -14.17% |
| `O=C(CN1CCC2(CCCN(CCO)C2=O)C1)NCCc1ccccc1` (stereo not drawn) | -8.456% | -5.057% | -1.448% | 3.96% | 14.14% |
| `O=C(NCCN1CCOCC1)NCc1ncc(-c2ccccc2)o1` | -8.798% | -2.679% | 1.891% | 2.075% | -10.85% |
| `CC(=O)N1CC[C@H]2C(=O)N(c3ccsc3)CCO[C@H]2C1` | 3.762% | 5.123% | 3.211% | 2.299% | 1.574% |
| `CC(NC(=O)N(C)C1CC1)c1ccc(Oc2cccnc2)c(F)c1` (stereo not drawn) | -2.283% | -0.1215% | 9.804% | 4.95% | -1.956% |
| `COCc1c(Br)cccc1NC(=O)N(C)CCO` | -13.75% | 2.088% | 4.683% | 3.571% | 3.374% |
| `Cc1ccc(CN2CCCC23CCN(S(=O)(=O)c2ccccc2)C3)o1` (stereo not drawn) | 5.404% | 4.884% | 2.503% | 7.182% | -37.94% |
| `COc1ccccc1CNC(=O)C(C)N1CC(n2cc(C)cn2)C1` (stereo not drawn) | -9.113% | 0.86% | 0.7645% | 1.19% | 0.5962% |
| `Cn1cc(N2CCCC(Nc3ccc4c(c3)NC(=O)CC4)C2=O)cn1` (stereo not drawn) | -12.27% | 2.273% | 2.107% | 9.189% | 5.019% |
| `Cc1ccc(CN2CC(C(=O)Nc3ccccc3)C3(CCOCC3)C2)o1` (stereo not drawn) | 4.653% | 6.036% | 3.27% | 3.96% | -36.91% |
| `COc1ncccc1C(=O)N1CC[C@H]2C[C@@H](C)O[C@@H]2C1` | 9.6% | -3.096% | 8.338% | -6.011% | -30.1% |
| `Cc1cc(-c2ccc(C(=O)O)cc2)nc(C2CCN(C(C)C)CC2)n1` | 13.89% | 2.941% | 1.101% | -3.191% | 1.901% |
| `COCC(O)CNC(=O)c1cc(COc2ccc3c(c2)CCCC3)on1` (stereo not drawn) | -2.419% | 6.958% | 7.545% | 1.587% | 26.73% |
| `CN(C)CCn1ccnc1C1CCN(c2cc(N)nc(N)n2)CC1` | -9.234% | 2.792% | 16.78% | 1.345% | -5.384% |
| `Cc1cc(C(=O)N2CCC3(CCNCC3)CC2)c2cccc(C)c2n1` | 12.23% | 3.418% | 1.895% | 3.659% | 1.707% |
| `Cc1csc2ncn(C(C)Cc3cccnc3)c(=O)c12` (stereo not drawn) | -6.978% | -0.7453% | 1.128% | 3.59% | -11.07% |
| `Cc1ccc(C(=O)NC2CCCCNC2=O)c(=O)[nH]1` (stereo not drawn) | 4.745% | -1.829% | 5.622% | 5.422% | -14.56% |
| `O=C(CCCc1nc(-c2ccccc2)no1)N1CCN(CCO)CC1` | -5.537% | 2.045% | -3.599% | -1.153% | -10.63% |
| `Cc1cc(NC(=O)CN2CCc3cncnc3C2)no1` | -15.04% | 4.773% | -1.406% | 5.187% | -23.53% |
| `Cc1nc(CCC(=O)NCC(N)=O)cc(C2CCNCC2)n1` | -7.94% | 3.148% | 4.094% | 3.333% | -0.7403% |
| `Cc1cc(N2CCc3cncnc3C2)n2nc(C(F)(F)F)nc2n1` | 0.9804% | -0.128% | 5.037% | 12.88% | 12.27% |
| `CCc1cn[nH]c1C1CCN(C(=O)c2cc(C#N)c(=O)[nH]c2C)CC1` | 1.898% | -1.304% | -0.05652% | 3.743% | 4.873% |
| `O=C(CSc1nnc(N2CCOCC2)s1)NC(=O)Nc1ccccc1` | 19.4% | 10.07% | 0.8003% | 9.278% | -23.38% |
| `c1ccc(CN2CCOC[C@H]2c2nc(-c3ccncc3)c[nH]2)nc1` | -16.23% | 8.055% | 4.235% | 2.488% | 6.565% |
| `Cc1nccn1-c1ccc(CNS(=O)(=O)N2CCCC(C)C2)cn1` (stereo not drawn) | -2.383% | 0.9615% | 4.229% | 10.13% | 13.04% |
| `Cn1cc(CNC(=O)NCCOc2ccc(F)c(F)c2)cn1` | -13.96% | 4.808% | 6.304% | 3.941% | - |
| `O=C(NCc1cccc(F)c1F)c1cc(CN2CCCC(O)C2)on1` (stereo not drawn) | -1.699% | -1.737% | -1.458% | 0.578% | 1.418% |

For reference, 4 entries once more:

CN(C)CCn1ccnc1C1CCN(c2cc(N)nc(N)n2)CC1 gave A: -9.234%; B: 2.792%; C: 16.78%; D: 1.345%; E: -5.384%.
CC(c1ccccc1)n1c(SCC(=O)O)nnc1-c1ccn[nH]1 (stereo not drawn) gave A: -12.5%; B: 0.8157%; C: 4.918%; D: 2.97%; E: 9.251%.
c1ccc(CN2CCOC[C@H]2c2nc(-c3ccncc3)c[nH]2)nc1 gave A: -16.23%; B: 8.055%; C: 4.235%; D: 2.488%; E: 6.565%.
Cc1nc(CCC(=O)NCC(N)=O)cc(C2CCNCC2)n1 gave A: -7.94%; B: 3.148%; C: 4.094%; D: 3.333%; E: -0.7403%.